Reference: patent publication US5030449A, “Synthetic vaccine against AIDS virus” (The United States of America as represented by the …, priority 1988, dated 1991)
Entries after “also recorded” stand apart in the source; their conditions may differ. Not every detail of the peptide structures is certain; ends, links or a residue may be inferred. Some entries repeat one wording, which the source may state once for all of them. Some entries share one result that the patent states for a list of compounds. Ends that are not written are not given here.

Tested on: HIV envelope-immune murine T cells (lymph node cells of gp160-immunized mice)
Experiment: Lymph node T-cell proliferation assay ([3H]thymidine incorporation, stimulation index)
Type: cell-based, mouse
Conditions: for T-cell proliferative response (in words): initial screening; for Strains with positive proliferative response among the four strains tested: H-2^k, H-2^d, H-2^t4, H-2^i5 mice
Excerpt: B10.BR/SgSn (H-2^k) and B10.D2/nSn (H-2^d) mice were obtained from the Jackson Laboratories (Bar Harbor, Me.). B10.S(9R)/Sg (H-2^t4) and B10.A(5R)/SgSn (H-2^i5) mice were bred at the NIH breeding colony from breeding pairs obtained from D. J. Stimpfling (Great Falls, Mont.) and from Jackson Laboratories. Mice from the strain B10.S(9R) and B10.A(5R) were chosen because both I-A and I-E molecules of the H-2^s and H-2^b haplotypes are expressed in these recombinant strains, whereas I-E is not expressed in nonrecombinant H-2^b and H-2^s mice.
Mice were immunized s.c. with 10-30 ug of recombinant gp160 1:1 in complete Freund's adjuvant (CFA) at the base of the tail. (The dose was determined according to the purity of the gp160 preparation.) Eight to ten days later, periaortic and inguinal lymph nodes were removed and prepared in a single-cell suspension in complete T-cell medium in accordance with the method of Berkower et al, 1984, J. Immunol., 132:1370. Lymph node cells at 4×10^5 cells per well were added to each well of flat-bottomed 96-well microtiter plates (Costar, Cambridge, Mass.). The 44 peptides were added to the wells to make a final volume of 0.2 ml of medium, and each peptide was tested in triplicate. On the fourth day of culture, 1 uCi of [^3 H]thymidine (6.7 Ci/mmol; New England Nuclear, Boston, Mass.) was added to each well. Eighteen hours later, […] incorporation into DNA, as a measure of proliferation, was determined using liquid scintillation counting. The stimulation index represents a ratio of experimental counts over background counts without antigen.
Mice of the H-2^k, H-2^d, H-^i5, and H-2^t4 haplotypes were immunized s.c. in the tail with recombinant gp160 in CFA at a dose of 20-30 ug per mouse. Eight to ten days later the mice were sacrificed, the periaortic and inguinal lymph nodes were isolated, and proliferation of lymph node cells in the presence or absence of antigen was determined as described herein supra.

[1] = B10.A(5R) H-2^i5 mice, peptide 2 μM
[2] = B10.BR H-2^k mice, peptide 2 μM
[3] = B10.D2 H-2^d mice, peptide 2 μM
[4] = B10.S(9R) H-2^t4 mice, peptide 2 μM
[5] = B10.A(5R) H-2^i5 mice, peptide 1 μM
[6] = B10.BR H-2^k mice, peptide 1 μM

Compound	S.I. (stimulation index, experimental cpm/control cpm) [1]	S.I. (stimulation index, experimental cpm/control cpm) [2]	S.I. (stimulation index, experimental cpm/control cpm) [3]	S.I. (stimulation index, experimental cpm/control cpm) [4]	T-cell proliferative response (in words) (H-2^t4 mice)	Strains with positive proliferative response among the four strains tested	further results
CC[C@H](C)[C@H](NC(=O)[C@H](CC(=O)O)NC(=O)[C@H](CCC(=O)O)NC(=O)[C@H](Cc1c[nH]cn1)NC(=O)[C@H](CCSC)NC(=O)[C@@H](N)CCC(N)=O)C(=O)N[C@H](C(=O)N[C@@H](CO)C(=O)N[C@@H](CC(C)C)C(=O)N[C@@H](Cc1c[nH]c2ccccc12)C(=O)N[C@@H](CC(=O)O)C(=O)N[C@@H](CCC(N)=O)C(=O)N[C@@H](CO)C(=O)N[C@@H](CC(C)C)C(=O)N[C@@H](CCCCN)C(=O)O)[C@@H](C)CC [HP-4, QMHEDIISLWDQSLK]	1.53	6.52	.83	.98	did not respond	–	T-cell proliferative response (in words) (H-2^k mice): diminishing response
CC[C@H](C)[C@H](NC(=O)[C@H](CC(=O)O)NC(=O)[C@H](CCC(=O)O)NC(=O)[C@@H](N)Cc1c[nH]cn1)C(=O)N[C@H](C(=O)N[C@@H](CO)C(=O)N[C@@H](CC(C)C)C(=O)N[C@@H](Cc1c[nH]c2ccccc12)C(=O)N[C@@H](CC(=O)O)C(=O)N[C@@H](CCC(N)=O)C(=O)N[C@@H](CO)C(=O)N[C@@H](CC(C)C)C(=O)N[C@@H](CCCCN)C(=O)O)[C@@H](C)CC [HP-5, HEDIISLWDQSLK]	1.64	11.2	1.56	.82	did not respond	–	T-cell proliferative response (in words) (H-2^k mice): recognized; also recorded: maximal response
CC[C@H](C)[C@H](NC(=O)[C@H](Cc1c[nH]cn1)NC(=O)[C@H](CCCNC(=N)N)NC(=O)[C@@H](NC(=O)[C@H](C)NC(=O)[C@H](CCCNC(=N)N)NC(=O)[C@H](Cc1ccc(O)cc1)NC(=O)[C@H](C)NC(=O)CNC(=O)[C@H](CCC(N)=O)NC(=O)[C@@H](NC(=O)[C@@H](NC(=O)[C@H](CCC(=O)O)NC(=O)[C@@H](NC(=O)[C@@H](N)C(C)C)[C@@H](C)CC)C(C)C)C(C)C)[C@@H](C)CC)C(=O)O [HP-54]	–	–	2.3	.98	–	–	S.I. (stimulation index, experimental cpm/control cpm) [5]: 2.87; S.I. (stimulation index, experimental cpm/control cpm) [6]: 4.04
CC[C@H](C)[C@H](NC(=O)[C@H](C)NC(=O)[C@H](CCCNC(=N)N)NC(=O)[C@H](Cc1ccc(O)cc1)NC(=O)[C@H](C)NC(=O)CNC(=O)[C@@H](N)CCC(N)=O)C(=O)N[C@@H](CCCNC(=N)N)C(=O)N[C@@H](Cc1c[nH]cn1)C(=O)N[C@H](C(=O)N1CCC[C@H]1C(=O)N[C@@H](CCCNC(=N)N)C(=O)N[C@@H](CCCNC(=N)N)C(=O)N[C@H](C(=O)N[C@@H](CCCNC(=N)N)C(=O)O)[C@@H](C)CC)[C@@H](C)CC [HP-55, QGAYRAIRHIPRRIR]	–	–	3.0	–	–	–	Response in dose response studies (in words) (B10.A(5R) H-2^i5 mice, FIG. 7): maximal responses; also recorded: responded maximally; S.I. (stimulation index, experimental cpm/control cpm) [5]: 5.77; S.I. (stimulation index, experimental cpm/control cpm) [6]: 2.99; Response in dose response studies (in words) (B10.D2 H-2^d mice, FIG. 5): responded preferentially; also recorded: positive and preferential responses; Response in dose response studies (in words) (B10.S(9R) H-2^t4 mice, FIG. 6): preferential responses; also recorded: preferentially recognized; S.I. (stimulation index, experimental cpm/control cpm) (B10.S(9R) H-2^t4 mice, peptide 1 μM): 2.62; T-cell proliferative response (in words) (H-2^d mice): positive response; T-cell proliferative response (in words) (H-2^t4 mice, dose of 1 uM): positive responses
AIRHIPRRIRQGLER [HP-56, AIRHIPRRIRQGLER]	–	3.43	2.08	6.21	–	–	S.I. (stimulation index, experimental cpm/control cpm) [5]: 2.70; Response in dose response studies (in words) (B10.D2 H-2^d mice, FIG. 5): responded preferentially; also recorded: positive and preferential responses; Response in dose response studies (in words) (B10.S(9R) H-2^t4 mice, FIG. 6): preferential responses; also recorded: preferentially recognized; T-cell proliferative response (in words) (H-2^t4 mice, dose of 1 uM): positive responses
AVAEGTDRVIEVVQG [HP-52, AVAEGTDRVIEVVQG]	–	–	1.42	1.90	–	–	S.I. (stimulation index, experimental cpm/control cpm) (B10.A(5R) H-2^i5 mice, peptide 0.3 μM): 2.49; Response in dose response studies (in words) (B10.BR H-2^k mice, FIG. 4): proliferative response primarily; also recorded: preferential response; S.I. (stimulation index, experimental cpm/control cpm) [6]: 5.61
DIISLWDQSLKPCVK [HP-7, DIISLWDQSLKPCVK]	1.58	9.59	1.26	1.57	did not respond	–	T-cell proliferative response (in words) (H-2^k mice): diminishing response
EQMHEDIISLWDQSL [HP-3, EQMHEDIISLWDQSL]	2.1	2.8	2.65	1.67	did not respond	–	T-cell proliferative response (in words) (H-2^d mice): recognized; also recorded: significant proliferative response; T-cell proliferative response (in words) (H-2^i5 mice): responded; also recorded: recognized
HEDIISLWDQSLR [HP-6, HEDIISLWDQSLR]	1.78	12.6	1.02	1.26	did not respond	–	T-cell proliferative response (in words) (H-2^k mice): maximal response
HIPRRIRQGLERILL [HP-57]	–	4.02	1.38	1.62	–	–	S.I. (stimulation index, experimental cpm/control cpm) [5]: 2.26
KYWWNLLQYWSQELK [HP-50, KYWWNLLQYWSQELK]	1.73	3.04	2.05	2.16	–	three of the four strains	–
LLQYWSQELKNSAVS [HP-51, LLQYWSQELKNSAVS]	1.46	2.49	2.15	3.8	–	three of the four strains	–
NMWQEVGKAMYAPPI [HP-28, NMWQEVGKAMYAPPI]	1.23	2.01	1.10	7.43	did respond	–	–
NNLLRAIEAQQHLLQLTVWGIK [HP-35]	1.0	4.58	1.22	5.01	–	three of the four strains	–
RDNWRSELYKYKVVK [HP-30, RDNWRSELYKYKVVK]	.97	2.19	2.25	5.45	–	three of the four strains	T-cell proliferative response (in words) (H-2^i5 mice): did not respond
RIVELLGRRGWEALK [HP-47, RIVELLGRRGWEALK]	1.36	8.58	2.6	5.26	–	three of the four strains	–
VGKAMYAPPISGQIR [HP-29, VGKAMYAPPISGQIR]	3.30	2.17	2.65	7.05	did respond	all of the strains	T-cell proliferative response (in words) (H-2^d mice): Positive responses; T-cell proliferative response (in words) (H-2^i5 mice): response was seen; also recorded: responded; T-cell proliferative response (in words) (H-2^k mice): positive response
WDQSLKPCVKLTPLCV [HP-8, residues 119-134 of HIV envelope]	–	–	–	–	did not respond	–	–
